PubChem BioAssay AID1259254, NCATS – 2017
Shown is a random part of about 59,000 deposited reagents. Of all reagents, about 1,550 (2.6%) were called active. 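G2 share is only a proxy for re-replication; each gene was hit by three separate siRNAs, and active genes were retested.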 The numbers tell different reagents against one gene apart. Further read-outs or replicates are left out here. No sequences are given here. Not given: the amount of reagent.

Purpose: 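Gene knock-downs that lead to re-replication, shown by excess G2 DNA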 (primary screen)
System: human HCT116 colorectal cancer cells
Reagents: single siRNA against human genes
Timing: 3 days
Detection: 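Imaged Hoechst DNA stain sorts each cell into a cycle phase by DNA amount; per plate, G2 fraction set to 0% for non-targeting and 100% for GMNN siRNA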
Direction: G2 robust z-score and G2 cells, % of GMNN control: higher = more G2 cells, more excess DNA replication
Rule for the call: 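Active siRNAs have a G2 robust z of 5 or more median absolute deviations over the median, which in these data means about 38% or higher of GMNN control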

UPP2 (uridine phosphorylase 2) #1 gave G2 robust z-score -0.426; G2 cells, % of GMNN control -0.0301; inactive.
UPP2 (uridine phosphorylase 2) #2 gave G2 robust z-score 1.35; G2 cells, % of GMNN control 12.5; inactive.
After knock-down of UPP2 (uridine phosphorylase 2) #3 the results were G2 robust z-score -0.55; G2 cells, % of GMNN control -0.905; inactive.
Silencing of CALB2 (calbindin 2) #1 gave: G2 robust z-score 0.652; G2 cells, % of GMNN control 7.55; inactive.
CALB2 (calbindin 2) #2 scored G2 robust z-score -0.104; G2 cells, % of GMNN control 2.24; inactive.
CALB2 (calbindin 2) #3 showed G2 robust z-score -0.7; G2 cells, % of GMNN control -1.96; inactive.
For CXCL16 (C-X-C motif chemokine ligand 16) #1 the deposit lists G2 robust z-score -0.913; G2 cells, % of GMNN control -3.46; inactive.
CXCL16 (C-X-C motif chemokine ligand 16) #2 showed G2 robust z-score 0.801; G2 cells, % of GMNN control 8.6; inactive.
With knock-down of CXCL16 (C-X-C motif chemokine ligand 16) #3, the screen gave G2 robust z-score 6.88; G2 cells, % of GMNN control 51.4; active.
Against RAB12 (RAB12, member RAS oncogene family) #1 the deposit lists G2 robust z-score -0.0503; G2 cells, % of GMNN control 2.61; inactive.
Against RAB12 (RAB12, member RAS oncogene family) #2, the entry reads G2 robust z-score 0.756; G2 cells, % of GMNN control 8.28; inactive.
After knock-down of RAB12 (RAB12, member RAS oncogene family) #3, the record shows G2 robust z-score 1.55; G2 cells, % of GMNN control 13.9; inactive.
With knock-down of MBIP (MAP3K12 binding inhibitory protein 1) #1, the screen gave G2 robust z-score -0.0264; G2 cells, % of GMNN control 2.78; inactive.
With knock-down of MBIP (MAP3K12 binding inhibitory protein 1) #2, the screen gave G2 robust z-score 1.63; G2 cells, % of GMNN control 14.5; inactive.
Silencing of MBIP (MAP3K12 binding inhibitory protein 1) #3 gave: G2 robust z-score -0.473; G2 cells, % of GMNN control -0.361; inactive.
Against TFR2 (transferrin receptor 2) #1, the values are G2 robust z-score -0.157; G2 cells, % of GMNN control 1.86; inactive.
Knock-down of TFR2 (transferrin receptor 2) #2 came out at: G2 robust z-score 0.49; G2 cells, % of GMNN control 6.41; inactive.
Knock-down of TFR2 (transferrin receptor 2) #3 gave: G2 robust z-score 2.42; G2 cells, % of GMNN control 20; inactive.

Called active, of those listed so far:
CXCL16 (C-X-C motif chemokine ligand 16) #3: G2 robust z-score = 6.88; G2 cells, % of GMNN control = 51.4; outcome = active
